Laboratory results: PubChem BioAssay AID1259405 (NCATS, 2018)

Aim: 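Silenced genes that increase secreted GFP made by CHO cells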 (primary screen)
Cell system: Chinese hamster CHO-K1 ovary cells with stable secreted eGFP expression
Reagents: single siRNA against mouse genes, 0.8 pmol siRNA per well (2 µl of 400 nM stock)
Time to read-out: 3 days
Detection: 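Per-well intracellular GFP measured by laser scanning cytometry, plus viability from ATP luminescence, each relative to plate median of non-targeting control wells, in %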
Direction: GFP, % of control: higher = more GFP per well, higher productivity; viability (ATP), % of control: higher = more viable cells (more ATP)
Rule for the call: 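Called active when intracellular GFP, relative to negative control, is at or above 120%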
This is one part, drawn at random, of about 50,000 reagents. Over the whole deposit, about 4,000 (8%) got an active call. 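Mouse siRNA library applied to hamster cells; one well for each siRNA.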 Entries without a mark were called inactive. The numbers tell different reagents against one gene apart. No sequences are given here.

target gene	reagent	GFP, % of control	viability (ATP), % of control
Gpkow	1	56.6	55
Gpkow	2	26.1	24.2
Gpkow	3	103	95.7
Krtap19-5	1	50.9	76.9
Krtap19-5	2	108	80.3
Krtap19-5	3	93.5	110
Akirin2	1	89.2	78
Akirin2	2	21.8	16.9
Akirin2	3	75.4	27.8
Krt16	1	67.8	47.3
Krt16	2	67.4	71.6
Krt16	3	55.2	76.3
Acp6	1	97.4	85.7
Acp6	2	99.8	97.4
Acp6	3	71.1	62.2
Zmat1	1	38.2	37.8
Zmat1	2	64.2	72
Zmat1	3	62.9	92.8
Zfp975	1	74.8	67.5
Zfp975	2	104	105
Zfp975	3	75.1	81.7
Sorcs1	1	48.2	50.5
Sorcs1	2	97.1	85
Sorcs1	3	49	25.5
Cdx2	1	79.2	92.3
Cdx2	2	168 (active)	113
Cdx2	3	39.6	57.4
Or2av9	1	114	60.7
Or2av9	2	58.9	48.4
Or2av9	3	101	72.5
Or51i2	1	86.1	85.8
Or51i2	2	23.3	30.2
Or51i2	3	70.2	94.7
Krt14	1	34.6	48.8
Krt14	2	60.2	70.7
Krt14	3	138 (active)	100
Sec11c	1	78.3	85.3
Sec11c	2	58.2	76.4
Sec11c	3	92	80.9
Slc25a14	1	104	98.5
Slc25a14	2	80.9	89.2
Slc25a14	3	68.8	89.4
Pik3r3	1	69.8	52.1
Pik3r3	2	101	73.4
Klhdc3	1	41.6	36.9
Klhdc3	2	127 (active)	88.6
Klhdc3	3	32.4	44.2
Hipk2	1	107	108
Hipk2	2	73.8	62.3
Hipk2	3	71.3	65.6
Ugt3a2	1	117	65.4
Ugt3a2	2	71.4	64.2
Ugt3a2	3	260 (active)	43.4
Mknk1	1	87.6	82.5
Srsf12	1	106	92.2
Srsf12	2	73.8	56.6
Srsf12	3	96.4	78.1
